Biological target: T1, OsCCAMK (UniProt Q6AVM3 1-516, limits assumed)
T1 construct: Named only in the discussion; The yeast two-hybrid construct is not described
T1 sequence (looked up): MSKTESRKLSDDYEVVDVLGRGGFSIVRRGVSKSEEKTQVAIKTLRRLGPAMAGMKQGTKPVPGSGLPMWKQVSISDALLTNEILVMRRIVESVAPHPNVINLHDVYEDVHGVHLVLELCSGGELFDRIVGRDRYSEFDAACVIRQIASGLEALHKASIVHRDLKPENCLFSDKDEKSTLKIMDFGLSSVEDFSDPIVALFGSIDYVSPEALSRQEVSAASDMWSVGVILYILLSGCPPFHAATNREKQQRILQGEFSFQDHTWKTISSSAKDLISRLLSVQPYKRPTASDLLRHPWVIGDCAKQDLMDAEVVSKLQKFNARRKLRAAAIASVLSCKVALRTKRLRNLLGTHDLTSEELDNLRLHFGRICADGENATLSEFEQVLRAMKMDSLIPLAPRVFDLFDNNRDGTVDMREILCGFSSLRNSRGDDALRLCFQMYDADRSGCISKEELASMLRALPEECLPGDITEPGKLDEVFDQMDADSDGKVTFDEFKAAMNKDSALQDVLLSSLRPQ
Experiment: yeast two-hybrid

binding result: no binding
B1: phosphate starvation response factor PHR2 (OsPHR2) (other)
chain: MERISTNQLYNSGIPVTVPSPLPAIPATLDENIPRIPDGQNVPRERELRSTPMPPHQNQSTVAPLHGHFQSSTGSVGPLRSSQAIRFSSVSSNEQYTNANPYNSQPPSSGSSSTLNYGSQYGGFEPSLTDFPRDAGPTWCPDPVDGLLGYTDDVPAGNNLTENSSIAAGDELAKQSEWWNDFMNYDWKDIDNTACTETQPQVGPAAQSSVAVHQSAAQQSVSSQSGEPSAVAIPSPSGASNTSNSKTRMRWTPELHERFVDAVNLLGGSEKATPKGVLKLMKADNLTIYHVKSHLQKYRTARYRPELSEGSSEKKAASKEDIPSIDLKGGNFDLTEALRLQLELQKRLHEQLEIQRSLQLRIEEQGKCLQMMLEQQCIPGTDKAVDASTSAEGTKPSSDLPESSAVKDVPENSQNGIAKQTGMRIH
notes: Transcription factor

Reference: US20240200090A1 (CAS CENTER FOR EXCELLENCE IN MOLECULAR PLANT SCIENCES, published 2024)
